Data as given in PubChem BioAssay AID1259308 (NCATS, 2017).

- Test: 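Candidate targets for better recombinant protein yield in mammalian cells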 (primary screen)
- System: human HEK293 embryonic kidney cells stably expressing firefly luciferase (HEK-CMV-Luc2-Hygro)
- Reagents: single siRNA against human genes, 0.8 pmol siRNA per well
- Duration: 72 h
- Read-out: 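Reporter luminescence and viable-cell signal on separate replicate plates, given as percent of non-targeting control and median/MAD z-scores, plus per-cell luciferase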
- Scale: total luciferase, z-score and total luciferase, % of control: higher = more reporter protein produced
- Active means: 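An siRNA counts as active if its total luciferase robust z-score exceeds 3; genes with two or more such siRNAs out of three were retested with fresh siRNAs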
- Calls: active = raised luciferase; inactive = no rise
This is one part, drawn at random, of about 59,000 reagents. About 1,510 of all reagents (2.6%) count as active. 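Calls use total luciferase alone and ignore viability, so some active siRNAs may act by altering cell number.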 Unmarked entries are inactive. The numbers tell different reagents against one gene apart. Not all columns of the deposit are shown.

PCED1B #1 | total luciferase, z-score: -0.418; total luciferase, % of control: 73.6
PCED1B #2 | total luciferase, z-score: 2.34; total luciferase, % of control: 129
PCED1B #3 | total luciferase, z-score: -0.434; total luciferase, % of control: 73.3
PYGO2 #1 | total luciferase, z-score: -2.55; total luciferase, % of control: 31.2
PYGO2 #2 | total luciferase, z-score: 1.26; total luciferase, % of control: 107
PYGO2 #3 | total luciferase, z-score: 0.85; total luciferase, % of control: 98.8
LAIR1 #1 | total luciferase, z-score: -2.8; total luciferase, % of control: 26.1
LAIR1 #2 | total luciferase, z-score: -0.306; total luciferase, % of control: 75.8
LAIR1 #3 | total luciferase, z-score: -0.487; total luciferase, % of control: 72.2
CNNM1 #1 | total luciferase, z-score: 2.2; total luciferase, % of control: 126
CNNM1 #2 | total luciferase, z-score: 0.118; total luciferase, % of control: 84.2
CNNM1 #3 | total luciferase, z-score: 0.496; total luciferase, % of control: 91.7
TUBA3E #1 | total luciferase, z-score: -0.0372; total luciferase, % of control: 81.1
TUBA3E #2 | total luciferase, z-score: 0.421; total luciferase, % of control: 90.3
TUBA3E #3 | total luciferase, z-score: 0.892; total luciferase, % of control: 99.6
ZYG11A #1 | total luciferase, z-score: 0.156; total luciferase, % of control: 85
ZYG11A #2 | total luciferase, z-score: 3.1 (active); total luciferase, % of control: 144
ZYG11A #3 | total luciferase, z-score: 0.19; total luciferase, % of control: 85.7
ITGB1BP2 #1 | total luciferase, z-score: -1.97; total luciferase, % of control: 42.7
ITGB1BP2 #2 | total luciferase, z-score: -0.766; total luciferase, % of control: 66.6
ITGB1BP2 #3 | total luciferase, z-score: 0.248; total luciferase, % of control: 86.8
TERB1 #1 | total luciferase, z-score: 2.36; total luciferase, % of control: 129
TERB1 #2 | total luciferase, z-score: -0.0768; total luciferase, % of control: 80.4
TERB1 #3 | total luciferase, z-score: 0.64; total luciferase, % of control: 94.6
OR4C46 #1 | total luciferase, z-score: 0.355; total luciferase, % of control: 89
OR4C46 #2 | total luciferase, z-score: 0.783; total luciferase, % of control: 97.5
OR4C46 #3 | total luciferase, z-score: -1.66; total luciferase, % of control: 48.9
KLHL26 #1 | total luciferase, z-score: -0.619; total luciferase, % of control: 69.6
KLHL26 #2 | total luciferase, z-score: -1.29; total luciferase, % of control: 56.2
KLHL26 #3 | total luciferase, z-score: 0.936; total luciferase, % of control: 100
TTLL4 #1 | total luciferase, z-score: -1.23; total luciferase, % of control: 57.5
TTLL4 #2 | total luciferase, z-score: -0.265; total luciferase, % of control: 76.6
TTLL4 #3 | total luciferase, z-score: 1.18; total luciferase, % of control: 105
PRELP #1 | total luciferase, z-score: 0.364; total luciferase, % of control: 89.1
PRELP #2 | total luciferase, z-score: -0.361; total luciferase, % of control: 74.7
PRELP #3 | total luciferase, z-score: -0.143; total luciferase, % of control: 79
RIOK1 #1 | total luciferase, z-score: 0.312; total luciferase, % of control: 88.1
RIOK1 #2 | total luciferase, z-score: 0.0397; total luciferase, % of control: 82.7
RIOK1 #3 | total luciferase, z-score: -0.149; total luciferase, % of control: 78.9
MAP3K14 #1 | total luciferase, z-score: 0.566; total luciferase, % of control: 93.1
MAP3K14 #2 | total luciferase, z-score: -0.256; total luciferase, % of control: 76.8
MAP3K14 #3 | total luciferase, z-score: -0.182; total luciferase, % of control: 78.3

4 entries from above, reduced to “total luciferase, z-score”:
OR4C46 #1 = 0.355
OR4C46 #2 = 0.783
OR4C46 #3 = -1.66
KLHL26 #1 = -0.619
